Experimental findings from patent publication US11638424B2, “Mosquito attractant formulations and uses thereof” (priority 2017, dated 2023) are described below.

This series relates to RBCs. The series can be described thus: Volatile collection (SPME) and GC-MS analysis of RBC headspace. The series is classed as cell-based, Human. As to the method: RBCs (1 ml) were transferred to 4 ml glass vials closed with auto-sampler screw caps, and equilibrated in a thermostat at 38° C. for 15 min. Then, 2.5 μl of HMBPP or Nanopure water were added to the RBCs samples (final concentration: 10 μM HMBPP per sample). Volatiles were collected from the headspace using solid phase micro-extraction (SPME; Supelco, Bellmonte, Pa., USA) (M. J. Yang, el al., J. Chem. Educ., 74, 1130-1132 (1997) and A. K. Borg-Karlson and R. Mozuraitis, Naturforsch., C. 51, 599-602 (1996)). […] Electron ionisation mass spectra were determined at 70 eV with the ion source kept at 230° C. and mass spectra were obtained at mass to charge ratio (m/z) 29-400. […] A similar protocol was used for the quantification of CO2, with the mass spectral data and GC retention times being compared with emission from frozen CO2. The relative amounts of CO2 in arbitrary units were determined from the areas of the respective chromatogram peaks using single ion display mode at m/z 44±0.5 Da. The amounts of identified compounds were quantified by the use of extracted ion chromatograms, since they are very minute. […] The estimations were based on the very same quantifications given in ‘arbitrary area units’. […]

Consider `C=C1CCC2CC1C2(C)C` (stereo not drawn) [β-pinene], for which the “proportion of compound identified in the headspace for hRBCs, % by weight (of the combined compounds)” value came out at 5 % by weight. As for `CC1=CCC2CC1C2(C)C` (stereo not drawn) [α-pinene], the figure is 7 % by weight.
